Data source: PubChem BioAssay AID743121 (NCATS, 2013)
The deposit covers about 26,000 reagents; this is a random part of them. 167 of all reagents (0.63%) were called active. 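Calls are per gene from RSA p-values that are not deposited; an individual active-marked siRNA can sensitise only weakly.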 Reagents against one gene are numbered here. Further read-outs or replicates are left out here.

Test: 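Genes whose silencing strengthens cell killing by camptothecin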 (primary screen)
System: MDA-MB-231 cells, a human breast cancer line
Reagent: single siRNA against human genes, 20 nM siRNA (0.8 pmol per well)
Timing: 120 h (drug added 48 h after transfection, read 72 h later)
Challenge: camptothecin 20 nM (about EC30) for 72 h; vehicle 0.1% DMSO in parallel plates
Read-out: 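Cell viability by ATP luminescence (CellTiter-Glo) as % of non-targeting siRNA wells, and the log2 ratio of viability without drug over viability with camptothecin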
Direction: log2 vehicle/camptothecin viability: higher = stronger sensitisation to camptothecin
Rule for the call: 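Active genes have an RSA gene-level p-value below 0.001, computed from the ratios of their separate siRNAs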

Target gene | reagent | log2 vehicle/camptothecin viability | Outcome
TM2D2 | 1 | -0.529 | inactive
TM2D2 | 2 | -0.335 | inactive
TM2D2 | 3 | 0.445 | inactive
TM2D2 | 4 | -0.268 | inactive
ATXN3 | 1 | -0.389 | inactive
ATXN3 | 2 | -0.184 | inactive
ATXN3 | 3 | 0.676 | inactive
ATXN3 | 4 | -0.192 | inactive
CCDC136 | 1 | -0.191 | inactive
CCDC136 | 2 | 0.245 | inactive
CCDC136 | 3 | -0.493 | inactive
CCDC136 | 4 | -0.038 | inactive
SFTPB | 1 | -0.452 | inactive
SFTPB | 2 | 0.48 | inactive
SFTPB | 3 | -0.0735 | inactive
SFTPB | 4 | -0.462 | inactive
ASB17 | 1 | -0.27 | inactive
ASB17 | 2 | -0.143 | inactive
ASB17 | 3 | 0.0853 | inactive
CTSK | 1 | 0.37 | inactive
CTSK | 2 | -0.791 | inactive
CTSK | 3 | -0.296 | inactive
TULP4 | 1 | -0.125 | inactive
TULP4 | 2 | -0.47 | inactive
TULP4 | 3 | -0.0843 | inactive
TULP4 | 4 | 0.535 | inactive
BAG5 | 1 | 0.0638 | inactive
BAG5 | 2 | -0.149 | inactive
BAG5 | 3 | -0.246 | inactive
BAG5 | 4 | -0.0801 | inactive
PRKAG2 | 1 | -0.0849 | inactive
PRKAG2 | 2 | -0.032 | inactive
PRKAG2 | 3 | -0.345 | inactive
PRKAG2 | 4 | 0.102 | inactive

Next part, starting with the last 6 of the part before.
Target gene | reagent | log2 vehicle/camptothecin viability | Outcome
BAG5 | 3 | -0.246 | inactive
BAG5 | 4 | -0.0801 | inactive
PRKAG2 | 1 | -0.0849 | inactive
PRKAG2 | 2 | -0.032 | inactive
PRKAG2 | 3 | -0.345 | inactive
PRKAG2 | 4 | 0.102 | inactive
ACKR1 | 1 | -0.295 | inactive
ACKR1 | 2 | 0.173 | inactive
ACKR1 | 3 | -0.0504 | inactive
ACKR1 | 4 | -0.422 | inactive
KDELR1 | 1 | 0.527 | inactive
KDELR1 | 2 | -0.0939 | inactive
KDELR1 | 3 | -0.243 | inactive
SLC25A27 | 1 | -0.114 | inactive
SLC25A27 | 2 | -0.424 | inactive
SLC25A27 | 3 | -0.462 | inactive
MS4A15 | 1 | -0.154 | inactive
MS4A15 | 2 | 0.545 | inactive
MS4A15 | 3 | -0.567 | inactive
MS4A15 | 4 | 0.125 | inactive
SIK3 | 1 | -0.692 | inactive
SIK3 | 2 | 0.0224 | inactive
SIK3 | 3 | -0.411 | inactive
ETV4 | 1 | -0.2 | inactive
ETV4 | 2 | -0.342 | inactive
ETV4 | 3 | -0.481 | inactive
ETV4 | 4 | -0.0567 | inactive
TRPM4 | 1 | -0.525 | inactive
TRPM4 | 2 | -0.34 | inactive
TRPM4 | 3 | -0.14 | inactive
GJB1 | 1 | 0.337 | inactive
GJB1 | 2 | 0.0385 | inactive
GJB1 | 3 | 0.745 | inactive
GJB1 | 4 | -0.323 | inactive
SC5D | 1 | -0.0697 | inactive
SC5D | 2 | -0.23 | inactive
SC5D | 3 | -0.656 | inactive
SC5D | 4 | 0.125 | inactive
MAPDA | 1 | -0.143 | inactive
MAPDA | 2 | -0.497 | inactive
MAPDA | 3 | -0.684 | inactive
